# Measurements taken from patent US4073890A, “Novel polypeptides” (Takeda Chemical Industries, Ltd., priority 1974, dated 1978).
# At least one peptide structure holds a part that was inferred or is arguable (an end, a ring closure or a residue). Square brackets hold non-standard residues; d marks the D form. Peptide text beside a SMILES is read from it. βAla = NCCC(=O)O
# Tested on: genetically diabetic mice (KKA^y or yellow KK mice)
# Assay: Amelioration of diabetes in genetically diabetic mice; plasma and urinary glucose by glucose oxidase method
# Format: in vivo
# Settings: for PG (plasma glucose) / UG (urinary glucose excreted for 24 hours): oral
# [1] = 1 mg/kg/day (figure missing in table), 4th day, drug-treatment
# [2] = 1 mg/kg/day (figure missing in table), 8th day, drug-treatment
# [3] = 1 mg/kg/day (figure missing in table), 12th day, post-treatment by head layout
# [4] = 1 mg/kg/day (figure missing in table), 16th day, post-treatment
# [5] = 1 mg/kg/day (figure missing in table), 20th day, post-treatment
# [6] = 1 mg/kg/day group (figure missing in table), pre-treatment
# [7] = 10mg/kg/day group, pre-treatment
# [8] = 10mg/kg/day, 4th day, drug-treatment
# [9] = 10mg/kg/day, 8th day, drug-treatment
# [10] = 10mg/kg/day, 12th day, post-treatment by head layout
# [11] = 10mg/kg/day, 16th day, post-treatment
# [12] = 10mg/kg/day, 20th day, post-treatment
# [13] = 100mg/kg/day group, pre-treatment
# [14] = 100mg/kg/day, 4th day, drug-treatment
# [15] = 100mg/kg/day, 8th day, drug-treatment
# [16] = 100mg/kg/day, 12th day, post-treatment by head layout
# [17] = 100mg/kg/day, 16th day, post-treatment
# [18] = 100mg/kg/day, 20th day, post-treatment
smiles,measurement,setting,value
"N=C(N)NCCC[C@H](NC(=O)CCN)C(=O)NCC(=O)N[C@@H](Cc1ccccc1)C(=O)N[C@@H](Cc1ccccc1)C(=O)N[C@@H](Cc1ccc(O)cc1)C(N)=O [Compound A, β-Ala-L-Arg-Gly-L-Phe-L-Phe-L-Tyr-NH2] (H-[βAla]RGFFY-NH2)",conclusion on diabetes of the mice,"KKA^y mice, oral, 1, 10 and 100 mg/kg/day",ameliorates diabetes of these mice
same,PG (plasma glucose),[1],352
same,UG (urinary glucose excreted for 24 hours),[1],0.299
same,PG (plasma glucose),[2],343
same,UG (urinary glucose excreted for 24 hours),[2],0.213
same,PG (plasma glucose),[3],370
same,UG (urinary glucose excreted for 24 hours),[3],0.190
same,PG (plasma glucose),[4],469
same,UG (urinary glucose excreted for 24 hours),[4],0.451
same,PG (plasma glucose),[5],523
same,UG (urinary glucose excreted for 24 hours),[5],0.450
same,PG (plasma glucose),[6],457±43
same,UG (urinary glucose excreted for 24 hours),[6],0.595
same,PG (plasma glucose),[7],458±43
same,UG (urinary glucose excreted for 24 hours),[7],0.571
same,PG (plasma glucose),[8],433
same,UG (urinary glucose excreted for 24 hours),[8],0.160
same,PG (plasma glucose),[9],338
same,UG (urinary glucose excreted for 24 hours),[9],0.0786
same,PG (plasma glucose),[10],354
same,UG (urinary glucose excreted for 24 hours),[10],0.0858
same,PG (plasma glucose),[11],396
same,UG (urinary glucose excreted for 24 hours),[11],0.238
same,PG (plasma glucose),[12],513
same,UG (urinary glucose excreted for 24 hours),[12],0.478
same,PG (plasma glucose),[13],455±14
same,UG (urinary glucose excreted for 24 hours),[13],0.582
same,PG (plasma glucose),[14],344
same,UG (urinary glucose excreted for 24 hours),[14],0.0743
same,PG (plasma glucose),[15],254
same,UG (urinary glucose excreted for 24 hours),[15],0.0446
same,PG (plasma glucose),[16],232
same,UG (urinary glucose excreted for 24 hours),[16],0.0466
same,PG (plasma glucose),[17],339
same,UG (urinary glucose excreted for 24 hours),[17],0.0750
same,PG (plasma glucose),[18],457
same,UG (urinary glucose excreted for 24 hours),[18],0.250
same,"plasma glucose or urinary glucose of treated groups, course in words","oral, 1, 10 and 100 mg/kg/day, during the treatment, dose-dependent",gradually decreasing during the treatment
